In US20020034421A1, “Remediation of contaminates including low bioavailability hydrocarbons” (priority 2000, published 2002):
Several values for one entry are separate records, joined by “and”; a condition that tells them apart may be missing. Equal values may be shown once.

Assay: Fate of 14C-Benzo(a)pyrene during Fenton's reagent treatment in Quakertown silt loam
Conditions: [H2O2:FeSO4] = [2.0 g:0.2 g]

In the case of c1ccc2c(c1)cc1ccc3cccc4ccc2c1c34 [Benzo(a)pyrene, benzo(a)pyrene], the “% recovered, Nonextractable (calculated)” value is reported as 33.6% and 30.3%, the “% recovered, Mineralization to CO2” value (14C-labeled) is reported as 18.3% and the “% recovered, parent compound” value (Determined by GC/FID) is reported as 3.3%. The “% recovered, Intermediates Water soluble” value (aqueous phase) was 16.8% and the “% recovered, Intermediates CH2Cl2 extractable” value (soil extract) was 31.3%.
